# Measurements: patent US9732101B2, “Bioreversible boronates for delivery of molecules into cells” (WISCONSIN ALUMNI RESEARCH FOUNDATION, priority 2012, dated 2017)
# Some entries share one result that the patent states for a list of compounds.
# B1: boronated RNase A alkylated with 2-bromoacetate: RNase A inactivated by treatment with 2-bromoacetic acid, then conjugated with 5-amino-2-hydroxymethylphenylboronic acid (conjugate, UniProt P61823 27-150, looked up)
# Ribonuclease pancreatic: KETAAAKFERQHMDSSTSAASSSNYCNQMMKSRNLTKDRCKPVNTFVHESLADVQAVCSQKNVACKNGQTNCYQSYSTMSITDCRETGSSKYPNCAYKTTQANKHIIVACEGNPYVPVHFDASV
# modifications: carboxymethylated, benzoboroxole boronated
# System: K-562 cells
# Experiment: Cell-proliferation assay, [methyl-3H]thymidine incorporation
# Assay type: cell-based, human
# Details: 44-h incubation, read-out: IC50, inhibition of K-562 cell proliferation
# Experimental: The effect of unmodified and boronated RNase A on the proliferation of K-562 cells was assayed as described in For assays, 5 μL of a solution of the ribonuclease or PBS (control) was added to 95 μL of cells (5.0×10^4 cells/mL). For co-treatment assays with fructose, ribonucleases were first serially diluted at 2× concentration, followed by addition of an equal volume of 2 M fructose in PBS to each ribonuclease dilution, resulting in a 1× ribonuclease dilution as before but now containing 1 M fructose. Then, 5 μL of each dilution was added to cells as above, including a control of PBS containing 1 M fructose. Because 5 μL of samples were added to 95 μL of cells, the final concentration of fructose in each well was 50 mM.
# After a 44-h incubation, K-562 cells were treated with [methyl-^3H]thymidine for 4 h, and the incorporation of radioactive thymidine into cellular DNA was quantitated by liquid scintillation counting. The results are shown as the percentage of [methyl-^3H]thymidine incorporated relative to control cells treated with PBS in FIG. 5. […] Values for IC50 were calculated by fitting the curves by nonlinear regression to the equation: y=100%/(1+10^(log(IC^50^)-log [ribonuclease])h), in which y is the total DNA synthesis following the [methyl-^3H]thymidine pulse and h is the slope of the curve.
molecule,measurement,value
B1,IC50,> 50 µM
